About 2,000 (0.49%) of roughly 410,000 compounds were called active. Inconclusive results, whose numbers are uncertain, are shown with a selection of clear calls. The call rests on the fitted dose curve; tested in HEK293 reporter line. Potencies beside an inconclusive call are fits to weak or partial responses and may not hold up.
assay: qHTS Assay for Foot and Mouth Disease Virus Antivirals: Primary Screen against the MLPCN compound library; conditions: FMDV antiviral cell-based qHTS; activity, negative = inhibition: at 57.9 µM (top of the series); further: nearly all actives have a fitted effect of over 55% in size
Potency means the concentration at half of the fitted maximal effect.

SMILES | Potency | activity, negative = inhibition
N#C/C(=C\c1ccc(N2CCOCC2)o1)c1nc2ccccc2[nH]1 | active: 10 µM | –
O=Cc1cc(Cl)ccc1OCCN1CCC(Cc2ccccc2)CC1 | – | inactive: -35.1%
Cc1cc(OCCCCN2C(=O)NC(C)(C)C2=O)cc(C)c1Cl | – | inactive: -34.5%
CCN1/C(=C\C=C\C2=[N+](CC)c3ccccc3C2(C)C)C(C)(C)c2ccccc21 | inconclusive: 35.5 µM [inhibitor, partial curve, poor fit] | –
COC(=O)C1=C(C)N(c2ccc(Cl)cc2)/C(=C/c2ccc(O)cc2)C1=O | inconclusive: 25.1 µM [inhibitor, partial curve, poor fit] | –
CC[n+]1c(/C=C2\Sc3ccccc3N2C)ccc2cccc(C)c21 | inconclusive: 4.47 µM [inhibitor, partial curve, poor fit] | –
N#CC(c1ccccc1)c1ccc(C(=O)c2ccc(F)cc2)cc1 (stereo not given) | – | inconclusive: -54% [inhibitor]
O=c1oc2ccccc2cc1-c1nc(-c2ccccc2)no1 | inconclusive: 25.1 µM [inhibitor, single point] | –
CCOC(=O)c1c(CN2CCOCC2)n(-c2ccccc2)c2ccc(O)cc12 | inconclusive: 15.8 µM [inhibitor, partial curve] | –
O=C(c1cc(-c2ccc(Cl)cc2Cl)on1)N1CCCC1 | active: 12.6 µM | –
CCOCCc1nnc(NC(=O)CS(=O)(=O)Cc2ccccc2)s1 | – | inactive: -32.2%
Cc1ccc(-n2ncc3c(SCc4cccnc4)ncnc32)c(C)c1 | inconclusive: 2 µM [inhibitor, partial curve, poor fit] | –
O=c1cc(N=Nc2ccc(Cl)cc2)[nH]c(=O)[nH]1 | inconclusive: 25.1 µM [inhibitor, partial curve, poor fit] | –
O=C(Nc1ccccc1)c1ccc2c(c1)OCCCO2 | inconclusive: 14.1 µM [inhibitor, partial curve] | –
O=C(Nc1cccc(S(=O)(=O)C(F)F)c1)c1ccc(Cl)c(S(=O)(=O)N2CCOCC2)c1 | inconclusive: 39.8 µM [inhibitor, partial curve, poor fit] | –
CCc1c(C)nc2ncnn2c1N1CCCC(C(=O)Nc2cc(F)ccc2C)C1 (stereo not given) | inconclusive: 35.5 µM [inhibitor, partial curve, poor fit] | –
COc1cc(NC(=O)c2ccc(C)cc2C)ccc1NC(=O)c1cc2ccccc2o1 | – | inconclusive: -30.5% [inhibitor]
CN(C)CCCN(C(=O)c1ccc2c(c1)CCCC2)c1nc2ccc(Cl)cc2s1 | inconclusive: 28.2 µM [inhibitor, partial curve, poor fit] | –
COc1ccc(CCNC(=O)/C(C#N)=C/c2cccc(OCc3ccccc3)c2)cc1OC | inconclusive: 28.2 µM [inhibitor, single point] | –
Cc1cc(/C=C2\SC(=Nc3ccc(F)cc3)NC2=O)c(C)n1-c1ccc(S(N)(=O)=O)cc1 | inconclusive: 35.5 µM [inhibitor, single point] | –

SMILES | Potency | activity, negative = inhibition
Cc1cc(C)c2nc3sc(C(=O)N4CCOCC4)c(N)c3cc2c1 | inconclusive: 20 µM [inhibitor, single point] | –
CCCC1OC23CCCCC2C(C#N)(C#N)C1(C#N)C(=N)O3 (stereo not given) | inconclusive: 20 µM [inhibitor, partial curve, poor fit] | –
CC(C)c1ccc(/C=C/C(=O)Nc2ccc(CN3CCOCC3)cc2)cc1 | inconclusive: 28.2 µM [inhibitor, partial curve, poor fit] | –
N/C(=N\OC(=O)COc1ccc(Br)cc1Cl)c1ccccn1 | inconclusive: 25.1 µM [inhibitor, single point] | –
Cc1ccc(-c2cc(-c3ccc(F)cc3)nc(N)c2C#N)o1 | – | inactive: -34.5%
CCCCc1c(Cc2cccc(F)c2)ncn1CCc1ccccc1OC | inconclusive: 31.6 µM [inhibitor, partial curve, poor fit] | –
N/C(=N\N=C\c1ccc2c(c1)OCO2)c1nonc1N | active: 17.8 µM | –
COc1cccc(-c2cn3nc4c(nc3n2)CCCC4)c1 | active: 10 µM | –
CCOC(=O)[C@]12CCC=C1N(Cc1cccc3ccccc13)C(=O)[C@H](CC(=O)NCc1ccc(OC)c(OC)c1)C2 | inconclusive: 35.5 µM [inhibitor, partial curve, poor fit] | –
COc1ccccc1N1CCN(c2ncnc3nc[nH]c23)CC1 | inconclusive: 10 µM [inhibitor, partial curve] | –
Cc1cccc(NC(=O)c2nc[nH]c2C(=O)NCCCCNC(=O)c2[nH]cnc2C(=O)Nc2cccc(C)c2)c1 | inconclusive: 6.31 µM [inhibitor, partial curve, poor fit] | –
O=C(c1ccc(S(=O)(=O)c2cccc(Cl)c2)c([N+](=O)[O-])c1)N1CCN(c2ccccn2)CC1 | inconclusive: 15.8 µM [inhibitor, partial curve, poor fit] | –
CC(=O)/C=C\c1cn(-c2ncc(C(F)(F)F)cc2Cl)c2ccccc12 | inconclusive: 31.6 µM [inhibitor, partial curve, poor fit] | –
Cc1cc(NC(=O)CSc2n[nH]c(CC(C)C)n2)no1 | inconclusive: 1.12 µM [inhibitor, full curve] | –
Cc1cc(NC(=O)CN2C(=O)NC(CC(C)C)C2=O)ccc1Br (stereo not given) | inconclusive: 1.78 µM [inhibitor, full curve] | –
Cc1ccc(S(=O)(=O)N2CCCC(C(=O)NCc3cccnc3)C2)cc1Cl (stereo not given) | inconclusive: 20 µM [inhibitor, partial curve, poor fit] | –
O=C1/C(=N\S(=O)(=O)c2cccs2)C([n+]2ccccc2)=C([O-])c2ccccc21 | inconclusive: 25.1 µM [inhibitor, partial curve, poor fit] | –
CC1CCC[C@H](O)CCCCCc2cc(O)cc(O)c2C(=O)O1 (stereo not given in full) | inconclusive: 35.5 µM [inhibitor, partial curve, poor fit] | –
CCC(C)n1c(O)c(C=NC(C)c2ccccc2)c(=O)[nH]c1=S (stereo not given) | inconclusive: 4.47 µM [inhibitor, full curve] | –
O=C(CSc1nnc2scc(-c3ccccc3)n12)Nc1nsc(-c2ccccc2)n1 | inconclusive: 31.6 µM [inhibitor, partial curve, poor fit] | –

Complete entries, looked up by structure:
`CC(C)c1ccc(/C=C/C(=O)Nc2ccc(CN3CCOCC3)cc2)cc1` in the list: Potency: inconclusive: 28.2 µM [inhibitor, partial curve, poor fit]
`CCCC1OC23CCCCC2C(C#N)(C#N)C1(C#N)C(=N)O3` (stereo not given) in the list: Potency: inconclusive: 20 µM [inhibitor, partial curve, poor fit]
`Cc1cc(C)c2nc3sc(C(=O)N4CCOCC4)c(N)c3cc2c1` in the list: Potency: inconclusive: 20 µM [inhibitor, single point]
